Values from PubChem BioAssay AID1224828 (NIAID, 2016)
Test: 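Find genes required for NF-kappaB p65 moving into the nucleus after LPS in mouse macrophages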 (primary screen). System: mouse RAW264.7 G9 macrophage reporter cells (GFP-p65, Tnf promoter-mCherry). Reagents: siRNA pool against mouse genes, 100 nM. Time to read-out: 2 days siRNA transfection, then 40 min LPS before fixation. Treatment: LPS (Salmonella minnesota R595) at 10 ng/ml. Measured: 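Microscopy ratio of nuclear to perinuclear-ring GFP-p65 signal, scaled to the plate median; gene score is the average of two replicate robust z-scores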. Direction: p65 translocation robust z-score: higher = more nuclear NF-kappaB p65 after LPS than the plate median; nuclear/cytoplasmic p65 ratio: higher = more nuclear NF-kappaB p65. Active means: 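Called active when z exceeds 3.3 or falls under -1.56 (median of Tlr4 controls), giving activity score of at least 50; no calls for control wells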. Calls: active = hit (p65 shift raised or lowered); inactive = no clear change.
Here is one part, drawn at random, of about 17,000 reagents. Of all reagents, 762 (4.5%) got an active call. 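Active calls include both raised and lowered p65 entry, mostly lowered; wells with fewer than 50 cells lack a z-score.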 The raw values are shown without normalisation. Entries without a mark were called inactive. The numbers tell different reagents against one gene apart.

| gene | reagent | p65 translocation robust z-score | nuclear/cytoplasmic p65 ratio, rep 1 | nuclear/cytoplasmic p65 ratio, rep 2 | low cell count flag |
| --- | --- | --- | --- | --- | --- |
| C1s2 (complement component 1, s subcomponent 2) | 1 | 1.6 | 1.88 | 1.83 | enough cells to score |
| Srsf6 (serine and arginine-rich splicing factor 6) | 1 | 0.08 | 1.34 | 1.33 | enough cells to score |
| Colec12 (collectin sub-family member 12) | 1 | -0.12 | 1.53 | 1.8 | enough cells to score |
| Bmp2 (bone morphogenetic protein 2) | 1 | 0.27 | 1.7 | 1.61 | enough cells to score |
| Pkd2l2 (polycystic kidney disease 2-like 2) | 1 | 0.99 | 1.56 | 1.61 | enough cells to score |
| Vmn1r29 (vomeronasal 1 receptor 29) | 1 | 0.28 | 1.45 | 1.23 | enough cells to score |
| Depdc7 (DEP domain containing 7) | 1 | 1.59 | 1.47 | 1.81 | enough cells to score |
| Ccdc9 (coiled-coil domain containing 9) | 1 | 0.15 | 1.66 | 1.76 | enough cells to score |
| Bccip (BRCA2 and CDKN1A interacting protein) | 1 | 0.7 | 1.7 | 1.74 | enough cells to score |
| C130070B15Rik (RIKEN cDNA C130070B15 gene) | 1 | 0.69 | 1.52 | 1.38 | enough cells to score |
| Mtmr12 (myotubularin related protein 12) | 1 | 0.11 | 1.55 | 1.39 | enough cells to score |
| Slc5a4a | 1 | – | 1.6 | 1.46 | fewer than 50 cells per well; well left out of scoring |
| Brat1 (BRCA1-associated ATM activator 1) | 1 | 0.65 | 1.44 | 1.64 | enough cells to score |
| Cap2 (cyclase associated actin cytoskeleton regulatory protein 2) | 1 | 0.2 | 1.63 | 1.81 | enough cells to score |
| Dbx2 (developing brain homeobox 2) | 1 | -0.87 | 1.3 | 1.42 | enough cells to score |
| Dph2 (DPH2 homolog) | 1 | 0.56 | 1.54 | 1.43 | enough cells to score |
| Slc43a1 | 1 | 0.26 | 1.55 | 1.56 | enough cells to score |
| Psmd2 (proteasome (prosome, macropain) 26S subunit, non-ATPase, 2) | 1 | – | 1.18 | 1.25 | fewer than 50 cells per well; well left out of scoring |
| Spp2 (secreted phosphoprotein 2) | 1 | 2.01 | 1.7 | 1.45 | enough cells to score |
| Zfp438 (zinc finger protein 438) | 1 | -0.34 | 1.55 | 1.76 | enough cells to score |
| Cit (citron) | 1 | 0.06 | 1.69 | 1.4 | enough cells to score |
| Cit (citron) | 2 | – | 1.28 | 1.32 | fewer than 50 cells per well; well left out of scoring |
| Hnrnpdl (heterogeneous nuclear ribonucleoprotein D-like) | 1 | 0.28 | 1.53 | 1.73 | enough cells to score |
| S100a1 (S100 calcium binding protein A1) | 1 | 2.96 | 1.84 | 2.03 | enough cells to score |

Not a retest: entries from further up.
| gene | reagent | p65 translocation robust z-score | nuclear/cytoplasmic p65 ratio, rep 1 | nuclear/cytoplasmic p65 ratio, rep 2 | low cell count flag |
| --- | --- | --- | --- | --- | --- |
| Cit (citron) | 2 | – | 1.28 | 1.32 | fewer than 50 cells per well; well left out of scoring |
| Hnrnpdl (heterogeneous nuclear ribonucleoprotein D-like) | 1 | 0.28 | 1.53 | 1.73 | enough cells to score |
| S100a1 (S100 calcium binding protein A1) | 1 | 2.96 | 1.84 | 2.03 | enough cells to score |

Next records:
| gene | reagent | p65 translocation robust z-score | nuclear/cytoplasmic p65 ratio, rep 1 | nuclear/cytoplasmic p65 ratio, rep 2 | low cell count flag |
| --- | --- | --- | --- | --- | --- |
| Cdk2ap2 (cyclin dependent kinase 2 associated protein 2) | 1 | -0.39 | 1.64 | 1.31 | enough cells to score |
| Or8b36 (olfactory receptor family 8 subfamily B member 36) | 1 | 1.06 | 1.53 | 1.44 | enough cells to score |
| Krtap19-9b (keratin associated protein 19-9B) | 1 | 0.94 | 1.49 | 1.72 | enough cells to score |
| Synj2 (synaptojanin 2) | 1 | 12.8 (active) | 1.67 | 5.13 | enough cells to score |
| Bnc2 (basonuclin zinc finger protein 2) | 1 | -0.46 | 1.12 | 1.46 | enough cells to score |
| B4galt4 | 1 | -1.07 | 1.36 | 1.73 | enough cells to score |
| Fmr1 (fragile X messenger ribonucleoprotein 1) | 1 | 1.14 | 1.58 | 1.53 | enough cells to score |
| Ppip5k1 (diphosphoinositol pentakisphosphate kinase 1) | 1 | 0.2 | 1.56 | 1.93 | enough cells to score |
| BCLP2 | 1 | 0.38 | 1.48 | 1.4 | enough cells to score |
| Atg4a (autophagy related 4A, cysteine peptidase) | 1 | 0.63 | 1.61 | 1.68 | enough cells to score |
| Fcgr4 (Fc receptor, IgG, low affinity IV) | 1 | -0.99 | 1.19 | 1.23 | enough cells to score |
| Nox3 (NADPH oxidase 3) | 1 | -0.67 | 1.61 | 1.43 | enough cells to score |
| Scn1b (sodium channel, voltage-gated, type I, beta) | 1 | -0.42 | 1.47 | 1.37 | enough cells to score |
| Clta (clathrin light chain A) | 1 | -1.66 (active) | 1.38 | 1.17 | enough cells to score |
| Zfp830 (zinc finger protein 830) | 1 | – | 1.45 | 1.33 | fewer than 50 cells per well; well left out of scoring |
| Tex13c3 (TEX13 family member C3) | 1 | 0.55 | 1.74 | 1.61 | enough cells to score |
